Source: the supplement of paper PMC12764529
± gives the half width of the 95% confidence interval. For many entries, trypsin and chymotrypsin gave values far apart.

Tests used:
[1] = folding stability dG unfold from chymotrypsin proteolysis; higher = more stable
In short: (§1)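 Only designs with AlphaFold2 dimer inter-PAE above 15 were retained; each was a mini-protein under 80 residues with no cysteine, in a PA-tagged cDNA display construct. After digestion with trypsin and chymotrypsin and sequencing, K50 was inferred by Bayesian fitting of counts, and unfolding free energy was derived per protease or combined against a sequence-predicted unfolded-state K50 and a shared folded-state K50.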

[2] = folding stability dG unfold from trypsin proteolysis; higher = more stable
Description: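 Folding stability of de novo designed mini-proteins (<80 aa, no Cys; designed by TrROS, TrMRF, ProteinMPNN and the joint model) was measured by cDNA display proteolysis with trypsin and chymotrypsin. Each protease was used at 11 concentrations in a threefold dilution series plus a no-protease condition. K50 was inferred by Bayesian fitting of sequencing counts, and dG unfold was derived against a sequence-predicted unfolded-state K50 (Tsuboyama et al. method). Sequences shown include variable-length N-terminal GS-type padding (SAGGSAGG...) inside a display construct carrying a PA tag. Rows were kept only if the AF2 dimer inter-PAE was >15, to exclude likely homo-oligomers.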

[3] = folding stability dG unfold (combined trypsin and chymotrypsin); higher = more stable
In short: as §1

Sequence	folding stability dG unfold [1] [kcal/mol]	folding stability dG unfold [2] [kcal/mol]	folding stability dG unfold [3] [kcal/mol]
SAGGGVGLLVVVVRLPPSVDPAAAVQAVADEIAEAFPDATVEVVAAAVLPGTGEVVAVFRVVGDTAASAGGS [r8_26_TrMRF]	3.72 ± 0.087	1.58 ± 0.058	3.27 ± 0.076
SLSEEEAKDNPEEANEKMQPPPVPPIPLPVPIRNPDNKQEFPAPFEIRTLPNHLEFRFPGNGKPFPVPIDSA [r9_548_TrROS]	2.87 ± 0.11	2.53 ± 0.24	2.63 ± 0.28
SAGGSAGGKKPKVKTVTLTITREDGKTYTITYNAETGEITIEVNGKTITLSVEDLKNLTITIKPSAGGSAGG [r6_939_TrROS_Hall]	4.74 ± 0.16	1.77 ± 0.19	4.22 ± 0.29
SAGGSAGGSAGGKPVKLEISFDKETNTITIKAVDEENKTVTETTIKVTFLPPPPPPPPKSAGGSAGGSAGGS [r10_331_TrROS_Hall]	2.14 ± 0.37	1.09 ± 0.12	2.03 ± 0.48
SAGGSAGKIEIPLPELGEVREEPVPDTVRIEVRFPDGRVLEATVLKDDTIEIREKGTGKLVATLPASAGGSA [r15_656_TrMRF]	1.39 ± 0.043	1.44 ± 0.058	1.44 ± 0.12
SAGPPNIEIKIERNPENGFLNVDIEYPDGQTVTYMFFLPDGRILVFTFTIDPGNGKIQDIEPEWIPLPNSAG [r5_587_TrROS]	5.45 ± 0.29	2.97 ± 0.17	4.75 ± 0.49
SAGGNVQISVEETDGGLYIQLTFRMPDPDPIKSFIENLGLPIKPTKIEPQRDPDNGREWVHATFRLPSAGGS [r16_699_TrROS]	5.16 ± 0.22	2.35 ± 0.17	4.49 ± 0.44
SAGGMTLDQLKHALRHKKMQIHEPNPNGWYVTFQNPDGKPPTFPVKSDDELRDILRDAPGFEVEVQPVSAGG [r13_600_TrROS]	0.84 ± 0.16	-0.0886 ± 0.17	0.608 ± 0.2
SAGGSAGGSEEVKTVTVTRIEELPDGTVRVFVRNEDGSVQEFTFPKEDLKIELPPGAEVRIVPSAGGSAGGS [r12_746_TrROS_Hall]	3.145 ± 0.019	0.948 ± 0.018	2.7 ± 0.035
SAGGEIKITSVKVLPDGTLVVEAEITLPNGYKVEIRVYADGTVEIRVYKKGEPPEPVTKTITLVVEPSAGGS [r16_787_TrROS_Hall]	4.45 ± 0.14	1.95 ± 0.085	4.06 ± 0.2
SAEKIKELLKKLGFEITKIEVVKDENGKEYIRITIKVKKVEYDPKTKEKKVKTETLTITLSKEELLKLLSAG [r14_16_TrROS_Hall]	5.33 ± 0.12	3.12 ± 0.079	5.16 ± 0.26
MTIEIIYWFKDEEEALEFAEEFARMLARQLGLPPEYLENIKIEVEVEEEKNEDGNRYYWVTIKIKIPPGFKS [r1_81_TrROS]	6.23 ± 0.34	3.86 ± 0.31	> 6
SELRDMTAEELAKLLAEELGIEEVKVTVEREGDTLTITIEVRDKETGETYTLRLRVTRRPDGSLLIEVERSA [r9_1042_TrROS_Hall]	5.25 ± 0.059	2.91 ± 0.083	4.85 ± 0.071
SAGGETIKIKITLTNENGEKAEITEVTIEKKDGYVTITVTVKLSNGEEKEVTLTLVLKLPPPPKEKKSAGGS [r16_132_TrROS_Hall]	4.3 ± 0.19	1.66 ± 0.15	4.13 ± 0.3
SAGGSAGGSAGGVPEDVIMSPVSTTLVEKEVLSTEVTPEGAPKTVEKVLIVEKTLEPLLSAGGSAGGSAGGS [r10_758_JUSTAS]	-0.853 ± 0.24	0.0499 ± 0.05	-0.429 ± 0.29
SAGGSAKKKTLTLEEILNLLKEAKEKNPDKTITLEITLKDGSTLTITIYPDGKVTITNEDGSKIELSAGGSA [r15_73_TrROS_Hall]	3.25 ± 0.12	1.23 ± 0.065	2.85 ± 0.14
SAGGKKKKLVIKDKKTNKYYEIENAKEIVKIEKVKGKDGKTYYVIYFKKTKKKIVIKTKEDLEKALKSAGGS [r8_206_TrROS_Hall]	1.18 ± 0.38	1.26 ± 0.24	1.23 ± 0.29
SAGGNIEIEMHMYRDPDDGYIIMAMTIEIEVTVPPSPEMRDNMPPGQTRTRTITFIFVFPLPPGDLKSAGGS [r8_274_TrROS]	5.22 ± 0.17	2.77 ± 0.077	4.71 ± 0.11

A section from the list above, for reference:
Sequence	folding stability dG unfold [1] [kcal/mol]	folding stability dG unfold [2] [kcal/mol]	folding stability dG unfold [3] [kcal/mol]
SAGPPNIEIKIERNPENGFLNVDIEYPDGQTVTYMFFLPDGRILVFTFTIDPGNGKIQDIEPEWIPLPNSAG [r5_587_TrROS]	5.45 ± 0.29	2.97 ± 0.17	4.75 ± 0.49
SAGGNVQISVEETDGGLYIQLTFRMPDPDPIKSFIENLGLPIKPTKIEPQRDPDNGREWVHATFRLPSAGGS [r16_699_TrROS]	5.16 ± 0.22	2.35 ± 0.17	4.49 ± 0.44
